Measured values as given in paper PMC6193138.
Results are given in words; binding and its absence hold for the method and conditions named. Binding seen in cells or lysates may run through a third protein. A result given as binding can be weak or reduced; the word gives no strength.

Target: his6-tagged TelC toxin domain (TelCtox), residues 202-552 of TelC (Streptococcus intermedius B196) (UniProt T1ZG69)
Test: pull-down

VSV-G epitope-tagged TipC1_(ΔTMD) (TipC1_(ΔTMD)-V) (from UniProt T1ZF08) (domain or fragment)
binding: binds
